Reference: the supplement of paper PMC11732987, “Enantioselective OTUD7B fragment discovery through chemoproteomics screening and high-throughput optimisation” (Communications Chemistry, 2025)
The other results are listed elsewhere or left out. The data scatter; read single values as rough.

By UniProt entry, the sequences of proteins in these tests, tags left out. Where a name states a change or a piece, a line headed by the entry shows the natural chain unless it says otherwise. Residues count along the entry.
UniProt Q9Y6I9: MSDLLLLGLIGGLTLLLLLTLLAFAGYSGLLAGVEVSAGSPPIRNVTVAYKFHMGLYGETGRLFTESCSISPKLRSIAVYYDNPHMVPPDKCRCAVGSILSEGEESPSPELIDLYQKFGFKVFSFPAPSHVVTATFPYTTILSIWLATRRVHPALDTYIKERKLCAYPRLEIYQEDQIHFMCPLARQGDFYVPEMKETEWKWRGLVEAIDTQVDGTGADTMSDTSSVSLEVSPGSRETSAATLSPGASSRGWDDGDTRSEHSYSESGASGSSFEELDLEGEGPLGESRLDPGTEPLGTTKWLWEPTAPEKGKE
UniProt P37802: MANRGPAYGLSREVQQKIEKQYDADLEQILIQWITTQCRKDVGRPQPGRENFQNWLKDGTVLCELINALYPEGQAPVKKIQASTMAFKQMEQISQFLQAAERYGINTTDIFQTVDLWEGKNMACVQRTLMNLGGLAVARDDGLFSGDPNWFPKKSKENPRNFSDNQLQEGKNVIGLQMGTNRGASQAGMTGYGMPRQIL
UniProt Q15814, 173-196: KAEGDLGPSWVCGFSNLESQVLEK
UniProt Q6NXT6: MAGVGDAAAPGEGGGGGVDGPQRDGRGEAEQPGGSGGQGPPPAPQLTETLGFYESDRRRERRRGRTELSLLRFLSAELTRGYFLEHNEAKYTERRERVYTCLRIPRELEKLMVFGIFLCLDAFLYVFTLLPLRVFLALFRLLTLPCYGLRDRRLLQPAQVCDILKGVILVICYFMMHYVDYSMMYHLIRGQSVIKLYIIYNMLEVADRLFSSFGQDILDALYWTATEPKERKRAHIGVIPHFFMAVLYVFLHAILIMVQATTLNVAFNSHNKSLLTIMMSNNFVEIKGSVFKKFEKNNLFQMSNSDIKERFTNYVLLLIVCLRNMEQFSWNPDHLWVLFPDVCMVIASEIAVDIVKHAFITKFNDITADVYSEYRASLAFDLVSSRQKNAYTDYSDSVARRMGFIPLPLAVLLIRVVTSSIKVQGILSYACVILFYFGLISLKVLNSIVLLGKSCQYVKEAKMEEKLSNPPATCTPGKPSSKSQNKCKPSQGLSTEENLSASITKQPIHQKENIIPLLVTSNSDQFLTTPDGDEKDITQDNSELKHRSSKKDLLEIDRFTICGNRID
UniProt Q9C0D5: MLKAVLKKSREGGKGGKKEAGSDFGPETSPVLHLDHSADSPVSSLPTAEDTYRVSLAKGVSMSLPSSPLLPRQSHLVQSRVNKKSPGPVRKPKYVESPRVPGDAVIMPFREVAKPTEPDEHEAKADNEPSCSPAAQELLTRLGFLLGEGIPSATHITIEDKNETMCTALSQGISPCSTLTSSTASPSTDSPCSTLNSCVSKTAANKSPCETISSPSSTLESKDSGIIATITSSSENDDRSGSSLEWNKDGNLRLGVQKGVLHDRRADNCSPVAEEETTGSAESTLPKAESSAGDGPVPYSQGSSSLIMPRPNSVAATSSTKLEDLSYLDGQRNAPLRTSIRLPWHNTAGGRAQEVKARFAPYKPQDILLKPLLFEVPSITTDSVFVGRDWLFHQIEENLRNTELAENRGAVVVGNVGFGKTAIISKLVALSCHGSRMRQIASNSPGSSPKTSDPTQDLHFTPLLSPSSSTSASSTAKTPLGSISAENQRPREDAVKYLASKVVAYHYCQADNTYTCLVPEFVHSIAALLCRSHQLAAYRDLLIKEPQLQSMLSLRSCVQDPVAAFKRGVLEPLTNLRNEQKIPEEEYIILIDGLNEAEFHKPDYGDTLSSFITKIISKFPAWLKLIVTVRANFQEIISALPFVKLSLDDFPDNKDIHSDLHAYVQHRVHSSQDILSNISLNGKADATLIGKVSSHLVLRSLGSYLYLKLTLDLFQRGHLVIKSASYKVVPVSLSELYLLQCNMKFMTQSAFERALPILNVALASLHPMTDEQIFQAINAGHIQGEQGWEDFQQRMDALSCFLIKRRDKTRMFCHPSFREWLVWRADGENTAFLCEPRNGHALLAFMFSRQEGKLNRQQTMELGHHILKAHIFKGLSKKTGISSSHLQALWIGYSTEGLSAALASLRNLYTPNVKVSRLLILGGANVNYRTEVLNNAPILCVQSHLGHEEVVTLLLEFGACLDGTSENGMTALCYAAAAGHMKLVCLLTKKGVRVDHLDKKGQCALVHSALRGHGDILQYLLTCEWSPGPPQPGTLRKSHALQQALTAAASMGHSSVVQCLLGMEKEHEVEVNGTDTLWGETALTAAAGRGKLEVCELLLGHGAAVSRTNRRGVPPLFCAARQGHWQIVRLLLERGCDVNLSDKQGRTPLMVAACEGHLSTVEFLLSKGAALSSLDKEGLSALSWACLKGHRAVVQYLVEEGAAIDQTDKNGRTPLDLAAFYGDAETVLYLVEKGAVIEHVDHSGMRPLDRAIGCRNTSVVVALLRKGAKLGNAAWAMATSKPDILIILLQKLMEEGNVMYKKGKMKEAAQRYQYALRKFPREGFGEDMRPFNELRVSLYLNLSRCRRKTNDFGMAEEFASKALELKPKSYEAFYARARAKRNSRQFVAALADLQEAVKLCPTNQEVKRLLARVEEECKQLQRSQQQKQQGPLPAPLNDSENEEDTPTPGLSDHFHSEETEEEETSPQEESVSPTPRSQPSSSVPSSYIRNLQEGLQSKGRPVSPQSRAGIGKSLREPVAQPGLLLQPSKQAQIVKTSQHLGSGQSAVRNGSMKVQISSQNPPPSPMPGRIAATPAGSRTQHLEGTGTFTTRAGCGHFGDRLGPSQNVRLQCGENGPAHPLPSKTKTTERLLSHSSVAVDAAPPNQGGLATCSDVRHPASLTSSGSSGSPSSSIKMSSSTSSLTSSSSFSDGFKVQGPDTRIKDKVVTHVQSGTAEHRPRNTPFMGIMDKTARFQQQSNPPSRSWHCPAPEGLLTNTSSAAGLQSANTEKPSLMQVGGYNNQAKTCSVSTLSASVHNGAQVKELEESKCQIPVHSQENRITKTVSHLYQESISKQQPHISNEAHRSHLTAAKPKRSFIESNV
UniProt Q0IIM8: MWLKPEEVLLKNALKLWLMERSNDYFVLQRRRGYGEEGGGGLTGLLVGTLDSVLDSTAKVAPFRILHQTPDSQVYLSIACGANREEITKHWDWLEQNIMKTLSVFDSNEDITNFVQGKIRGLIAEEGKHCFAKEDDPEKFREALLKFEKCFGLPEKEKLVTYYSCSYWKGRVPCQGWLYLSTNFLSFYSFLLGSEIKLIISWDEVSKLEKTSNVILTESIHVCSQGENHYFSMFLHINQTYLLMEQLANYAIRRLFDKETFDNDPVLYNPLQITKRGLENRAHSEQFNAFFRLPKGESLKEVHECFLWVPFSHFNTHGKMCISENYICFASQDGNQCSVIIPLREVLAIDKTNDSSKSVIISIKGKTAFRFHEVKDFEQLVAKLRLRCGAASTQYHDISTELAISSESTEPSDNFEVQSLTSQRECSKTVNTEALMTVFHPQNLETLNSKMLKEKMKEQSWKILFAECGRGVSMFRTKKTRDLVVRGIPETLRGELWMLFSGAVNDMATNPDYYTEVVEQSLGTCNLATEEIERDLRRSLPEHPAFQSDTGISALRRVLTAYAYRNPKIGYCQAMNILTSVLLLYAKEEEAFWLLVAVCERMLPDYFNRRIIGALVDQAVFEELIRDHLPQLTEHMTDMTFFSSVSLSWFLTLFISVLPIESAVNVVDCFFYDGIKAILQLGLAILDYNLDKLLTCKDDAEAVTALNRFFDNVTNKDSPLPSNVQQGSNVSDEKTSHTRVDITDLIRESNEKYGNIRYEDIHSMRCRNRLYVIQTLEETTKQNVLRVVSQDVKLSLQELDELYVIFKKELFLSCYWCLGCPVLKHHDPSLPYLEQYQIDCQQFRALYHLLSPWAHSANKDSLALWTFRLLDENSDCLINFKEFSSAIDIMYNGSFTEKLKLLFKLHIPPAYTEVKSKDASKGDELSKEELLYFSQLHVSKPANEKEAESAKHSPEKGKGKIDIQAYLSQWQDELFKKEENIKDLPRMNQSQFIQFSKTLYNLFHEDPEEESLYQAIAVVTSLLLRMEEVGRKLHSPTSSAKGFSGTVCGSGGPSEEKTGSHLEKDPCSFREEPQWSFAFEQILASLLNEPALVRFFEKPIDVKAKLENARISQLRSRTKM
UniProt Q15633, 142-171: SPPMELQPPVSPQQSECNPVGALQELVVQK
UniProt Q99426: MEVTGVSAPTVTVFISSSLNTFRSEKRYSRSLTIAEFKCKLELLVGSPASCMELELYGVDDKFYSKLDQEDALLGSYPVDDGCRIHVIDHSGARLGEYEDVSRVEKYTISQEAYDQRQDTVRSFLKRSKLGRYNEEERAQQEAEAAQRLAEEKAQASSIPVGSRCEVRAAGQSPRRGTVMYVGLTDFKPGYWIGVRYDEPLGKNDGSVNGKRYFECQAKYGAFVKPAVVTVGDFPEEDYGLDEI

Compound: ClCC(=O)N[C@H]1CCCc2ccccc12
Assay: log2 mean competition ratio of IA-DTB cysteine labelling (DMSO/compound) (log2 ratio); higher = stronger cysteine engagement by compound
Conditions: treatment time: 4 h, cell line lysate: HEK293T
Procedure: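 IA-DTB competitive cysteine chemoproteomics in HEK293T RIPA lysate. Lysates were treated with compound 29 or 30 at 50 or 200 µM for 4 h, then IA-DTB (500 µM, 1 h), trypsin-digested, NeutrAvidin-enriched and analysed by diaPASEF. Competition ratio = intensity DMSO / intensity compound (n=4 treated, n=64 DMSO); binding: mean log2 CR ≥ 1 and p ≤ 0.05 plus QC filters. Target is the cysteine site.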

| Target | log2 mean competition ratio (50 µM) | log2 mean competition ratio (200 µM) |
| --- | --- | --- |
| TBC1D32 C825 | -0.19 | -0.126 |
| TEX264 C182 (UniProt Q9Y6I9) | -0.372 | 0.326 |
| TAP2 C362 (UniProt Q03519) | -0.353 | -0.0604 |
| THADA C1585 (UniProt Q6YHU6) | 0.359 | -0.186 |
| TAGLN2 C124 (UniProt P37802) | 0.357 | -0.226 |
| TASOR C1421 (UniProt Q9UK61) | -0.2 | 0.0322 |
| TEPSIN C295 | 0.228 | 0.255 |
| TBCC C6 (UniProt Q15814) | -0.0876 | -0.0251 |
| TAPT1 C474 (UniProt Q6NXT6) | 0.0557 | -0.105 |
| TACC3 C662 | 0.245 | -0.146 |
| TASP1 C351 (UniProt Q9H6P5) | -0.214 | -0.267 |
| TAPBP C115 (UniProt O15533) | 0.125 | 0.134 |
| TAF1D C36 | 0.328 | -0.19 |
| TBRG4 C246 (UniProt Q969Z0) | 0.0619 | 0.352 |
| TANC1 C557 (UniProt Q9C0D5) | -0.264 | -0.178 |
| TCF20 C868 (UniProt Q9UGU0) | -0.203 | 0.339 |
| TBC1D8B C468 (UniProt Q0IIM8) | 0.418 | -0.00909 |
| TCF20 C498 (UniProt Q9UGU0) | -0.125 | -0.291 |
| TARBP2 C158 (UniProt Q15633) | -0.302 | -0.276 |
| TBCD C899 | 0.0438 | -0.00333 |
| TBCC C184 (UniProt Q15814) | 0.383 | 0.119 |
| TBCB C216 (UniProt Q99426) | 0.13 | 0.0791 |
| TET2 C1811 (UniProt Q6N021) | 0.243 | -0.0769 |

2 successive entries already listed, quoted:

| Target | log2 mean competition ratio (50 µM) | log2 mean competition ratio (200 µM) |
| --- | --- | --- |
| THADA C1585 (UniProt Q6YHU6) | 0.359 | -0.186 |
| TAGLN2 C124 (UniProt P37802) | 0.357 | -0.226 |
